Results taken from PubChem BioAssay AID2551 (National Center for Advancing Translational Sciences (NCATS), 2010).
Screen size: about 310,000 compounds; about 17,000 (5.5%) were called active. The shares of active, inactive and inconclusive entries below differ from those in the screen. The call rests on the fitted dose curve; in most records, active means well fitted inhibition curve with a large enough effect; inconclusive means small, poorly fitted or top-dose-only effect, or effect the other way; inactive means no such curve, though single readings can be large or run the other way. Where the call is inconclusive, the potency comes from a doubtful curve fit.

Protein sequences, listed by entry. Tags and fused reporters are not part of them. Lines headed by an entry give the natural chain unless they say otherwise; changes in a name come on top.
UniProt P51450: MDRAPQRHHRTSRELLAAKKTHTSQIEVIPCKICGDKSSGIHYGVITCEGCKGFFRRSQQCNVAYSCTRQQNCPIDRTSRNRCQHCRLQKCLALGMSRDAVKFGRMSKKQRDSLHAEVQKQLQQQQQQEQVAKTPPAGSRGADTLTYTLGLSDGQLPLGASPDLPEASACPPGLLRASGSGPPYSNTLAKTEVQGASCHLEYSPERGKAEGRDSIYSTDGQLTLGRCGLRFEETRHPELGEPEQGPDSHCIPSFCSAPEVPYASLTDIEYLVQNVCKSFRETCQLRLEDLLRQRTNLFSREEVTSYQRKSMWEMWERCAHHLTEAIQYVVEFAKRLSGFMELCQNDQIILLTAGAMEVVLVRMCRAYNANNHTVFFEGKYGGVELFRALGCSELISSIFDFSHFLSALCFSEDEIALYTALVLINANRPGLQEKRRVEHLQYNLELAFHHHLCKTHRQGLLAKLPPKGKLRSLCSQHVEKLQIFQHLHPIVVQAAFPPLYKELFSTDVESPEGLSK

target: Nuclear receptor ROR-gamma (Mus musculus) (UniProt P51450); experiment: qHTS for inhibitors of ROR gamma transcriptional activity; settings: Drosophila S2 Gal4-RORgamma UAS-luciferase reporter, 20 h; activity change, negative = inhibition: at 53.6 µM (top of the series); further: nearly all actives have a fitted effect of over 60% in size
How it was run: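 Schneider cells (Drosophila), stable Gal4 DBD–ROR gamma + UAS-luc; 1 hr cmpd preincubation; Cu2+ induction 700 uM final; 20 hr ambient; luminescence.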
On the % scale 0 is the no-effect control and ±100 the full control effect; potency means the concentration at half of the fitted maximal effect.

| SMILES | Potency | activity change, negative = inhibition |
| --- | --- | --- |
| O=C(COc1c(Cl)cccc1Cl)Nc1ccccc1N1CCCC1 | inconclusive: 35.5 µM [activator, single point] |  |
| CC1CCCN(S(=O)(=O)c2ccc(NC(=O)C3CCN(C(=O)c4ccco4)CC3)cc2)C1 (stereo unspecified) | inconclusive: 7.94 µM [activator, partial curve] |  |
| C/C(CCc1ccco1)=N/NC(=O)CCC(=O)Nc1ccc(Br)cc1 | inconclusive: 20 µM [inhibitor, single point] |  |
| CCN(CC)c1nc2c(c(=O)[nH]c(=O)n2C)n1Cc1ccccc1Cl | inconclusive: 14.1 µM [activator, partial curve] |  |
| N=C1SCC(=O)N1c1nc(-c2ccccc2)cs1 | active: 8.91 µM |  |
| COc1cccc(-n2c(=S)[nH]c3c(oc4ccccc43)c2=O)c1 | active: 7.08 µM |  |
| CCOC(=O)C(C)/C(C)=N/NC(=O)CCC(=O)Nc1cc(C)ccc1C (stereo unspecified) | inconclusive: 17.8 µM [inhibitor, single point] |  |
| COc1cc(NC(=S)Nc2ccccn2)c(OC)cc1Cl | active: 1.26 µM |  |
| CCOc1ccc(NC(=S)NC(=O)c2c(Cl)c(C)nn2C)c([N+](=O)[O-])c1 | active: 10 µM |  |
| Cc1ccc(C)c2[nH]c(=O)c(CN(CCN3CCOCC3)Cc3nnnn3CC3CCCO3)cc12 (stereo unspecified) |  | inactive: -21.5% |
| COc1cccc(CNC(=O)CCC2CCCN(C(=O)c3cccc4c(C)c(C)[nH]c34)C2)c1 (stereo unspecified) | inconclusive: 20 µM [activator, single point] |  |
| CCOCCn1c(=O)c2c(nc3n2CC(C)CN3CCc2ccccc2)n(C)c1=O (stereo unspecified) |  | inactive: -8.72% |
| COc1ccc(-c2cc(C(=O)N3CCN(c4ccccc4O)CC3)c3ccccc3n2)cc1OC | inconclusive: 10 µM [activator, partial curve] |  |
| O=C(CN1CCCCCC1)Nc1ccc(Br)cn1 | inconclusive: 0.316 µM [inhibitor, partial curve, poor fit] |  |
| Cn1nnnc1SCC(=O)Nc1ccc2c(c1)OCO2 |  | inactive: 7.71% |
| C=CCNC(=O)CSc1nc2sc3c(c2c(=O)n1CCC)CCC3 | inconclusive: 2.51 µM [activator, full curve, poor fit] |  |
| COc1ccccc1-c1ccc2ncnc(N(C)C)c2c1 | inconclusive: 20 µM [inhibitor, partial curve, poor fit] |  |
| Cc1ccccc1NC(=O)c1ccc(S(=O)(=O)N2CCCC2)cc1 |  | inactive: -11.7% |
| CN(C)c1ccc(CNc2ncnc3sccc23)cc1 | inconclusive: 0.282 µM [activator, full curve, poor fit] |  |
| COc1ccccc1-n1c(-c2ccccc2)c[nH]c1=S | active: 2.82 µM |  |
| CCCOc1ccc(C2NC(=O)NC2=O)cc1 (stereo unspecified) | inconclusive: 35.5 µM [inhibitor, single point] |  |
| Cc1ccc(C(=O)COC(=O)C2CC(=O)N(c3nc(-c4ccccc4)cs3)C2)cc1C (stereo unspecified) | inconclusive: 35.5 µM [inhibitor, single point] |  |
| CC(C)(C)C(=O)OCOP(=O)(COCCn1cnc2c(N)ncnc21)OCOC(=O)C(C)(C)C |  | inactive: -14.6% [at 10 µM] |

Given with bars between the fields: entries from further up.
SMILES | Potency | activity change, negative = inhibition
COc1cccc(-n2c(=S)[nH]c3c(oc4ccccc43)c2=O)c1 | active: 7.08 µM | 
C=CCNC(=O)CSc1nc2sc3c(c2c(=O)n1CCC)CCC3 | inconclusive: 2.51 µM [activator, full curve, poor fit] | 

(further entries)

| SMILES | Potency | activity change, negative = inhibition |
| --- | --- | --- |
| COc1ccccc1CN1CC(C(=O)NCCCc2ccc(F)cc2)CCC1=O (stereo unspecified) | inconclusive: 14.1 µM [activator, partial curve, poor fit] |  |
| COc1ccc(-c2nnc(SCc3nnc(-c4ccccc4)o3)n2C)cc1OC | inconclusive: 14.1 µM [activator, partial curve] |  |
| Cc1cccc(C)c1OCC(=O)N/N=C/c1cc2c(cc1[N+](=O)[O-])OCO2 | inconclusive: 3.16 µM [activator, full curve, poor fit] |  |
| CNn1cnc2ccsc2c1=O |  | inactive: -16.3% |
| CC(=O)Nc1ccc(S(=O)(=O)N(c2cccnc2)S(=O)(=O)c2ccc(NC(C)=O)cc2)cc1 | inconclusive: 11.2 µM [activator, partial curve] |  |
| Nc1nc(SCc2ccccc2Cl)[nH]c(=O)c1-c1ccccc1 |  | inactive: 37.7% |
| Cc1c(Cc2ccc3c(c2)OCO3)sc(NC(=O)c2cccc3ccccc23)c1C(N)=O | inconclusive: 35.5 µM [activator, single point] |  |
| CC(C)CN1C(=O)C(=O)N(CC(=O)Nc2cc(Cl)ccc2Oc2ccccc2)C1=O | inconclusive: 15.8 µM [activator, single point] |  |
| Cc1ccc(S(=O)(=O)N(CC(=O)NCC2CCCO2)Cc2ccc(F)cc2)cc1 (stereo unspecified) |  | inactive: -19.5% |
| O=C(NC1CCCc2ccccc21)C1CCCC1 (stereo unspecified) |  | inactive: -6.48% |
| CCN(CC)c1ncnc2c1cnn2Cc1ccc(Cl)cc1 | inconclusive: 10 µM [activator, partial curve] |  |
| Cc1cccc(NC(=S)N/N=C/c2cccn2Cc2ccc(F)cc2)c1 | active: 0.199 µM |  |
| Cc1ccc(C=Nc2ccc(N(C)C)cc2)o1 | inconclusive: 17.8 µM [inhibitor, single point] |  |
| O=C(c1ccncc1)N1CCN(C2CCCCC2)CC1 |  | inactive: -16.9% |
| CCCSc1nnc2n(C)c(=O)c3c4c(sc3n12)CCC4 | inconclusive: 2.24 µM [inhibitor, partial curve] |  |
| O=C(/C=C/Nc1ccccc1F)c1ccc(Br)cc1 | active: 10 µM |  |
| O=C(NC(=S)N1CCCCC1CO)C12CC3CC(CC(C3)C1)C2 (stereo unspecified) | inconclusive: 12.6 µM [inhibitor, single point] |  |
| CC1=CC(C)(C)N(C(=O)CN2C(=O)c3ccccc3C2=O)c2ccc(C)cc21 | inconclusive: 3.55 µM [activator, single point] |  |
| Cc1ccc(CSc2nnc(C)c(=O)n2N)cc1 | inconclusive: 7.08 µM [activator, partial curve] |  |
| Fc1ccc(N/N=C(/c2ccccc2)c2ccccn2)cc1 | inconclusive: 11.2 µM [inhibitor, single point] |  |
| COCC(=O)Nc1nnc(-c2ccc(C(C)(C)C)cc2)s1 | inconclusive: 35.5 µM [inhibitor, single point] |  |
| CCOc1ccc(CCNC(=O)C2CCCN(c3nn4c(=O)cc(C)nc4s3)C2)cc1OCC (stereo unspecified) | inconclusive: 35.5 µM [inhibitor, single point] |  |
| CCOC(=O)Cc1csc(NC(=S)NC(=O)c2ccc([N+](=O)[O-])cc2)n1 | active: 10 µM |  |
